No constants are given. Whether binding was seen depends on the method and setting. In cells and extracts the contact can be indirect. A yes stands for co-enrichment or nearness to the bait. Other partners may have been found.
B1: Cct2 (protein, UniProt P78371 1-535)
chain: MASLSLAPVNIFKAGADEERAETARLTSFIGAIAIGDLVKSTLGPKGMDKILLSSGRDASLMVTNDGATILKNIGVDNPAAKVLVDMSRVQDDEVGDGTTSVTVLAAELLREAESLIAKKIHPQTIIAGWREATKAAREALLSSAVDHGSDEVKFRQDLMNIAGTTLSSKLLTHHKDHFTKLAVEAVLRLKGSGNLEAIHIIKKLGGSLADSYLDEGFLLDKKIGVNQPKRIENAKILIANTGMDTDKIKIFGSRVRVDSTAKVAEIEHAEKEKMKEKVERILKHGINCFINRQLIYNYPEQLFGAAGVMAIEHADFAGVERLALVTGGEIASTFDHPELVKLGSCKLIEEVMIGEDKLIHFSGVALGEACTIVLRGATQQILDEAERSLHDALCVLAQTVKDSRTVYGGGCSEMLMAHAVTQLANRTPGKEAVAMESYAKALRMLPTIIADNAGYDSADLVAQLRAAHSEGNTTAGLDMREGTIGDMAILGITESFQVKRQVLLSAAEAAEVILRVDNIIKAAPRKRVPDHHPC
B2: Brap (protein, UniProt Q7Z569 1-592)
chain: MSVSLVVIRLELAEHSPVPAGFGFSAAAGEMSDEEIKKTTLASAVACLEGKSPGEKVAIIHQHLGRREMTDVIIETMKSNPDELKTTVEERKSSEASPTAQRSKDHSKECINAAPDSPSKQLPDQISFFSGNPSVEIVHGIMHLYKTNKMTSLKEDVRRSAMLCILTVPAAMTSHDLMKFVAPFNEVIEQMKIIRDSTPNQYMVLIKFRAQADADSFYMTCNGRQFNSIEDDVCQLVYVERAEVLKSEDGASLPVMDLTELPKCTVCLERMDESVNGILTTLCNHSFHSQCLQRWDDTTCPVCRYCQTPEPVEENKCFECGVQENLWICLICGHIGCGRYVSRHAYKHFEETQHTYAMQLTNHRVWDYAGDNYVHRLVASKTDGKIVQYECEGDTCQEEKIDALQLEYSYLLTSQLESQRIYWENKIVRIEKDTAEEINNMKTKFKETIEKCDNLEHKLNDLLKEKQSVERKCTQLNTKVAKLTNELKEEQEMNKCLRANQVLLQNKLKEEERVLKETCDQKDLQITEIQEQLRDVMFYLETQQKINHLPAETRQEIQEGQINIAMASASSPASSGGSGKLPSRKGRSKRGK
B3: Imp3 (protein, UniProt Q9NV31 1-184)
chain: MVRKLKFHEQKLLKQVDFLNWEVTDHNLHELRVLRRYRLQRREDYTRYNQLSRAVRELARRLRDLPERDQFRVRASAALLDKLYALGLVPTRGSLELCDFVTASSFCRRRLPTVLLKLRMAQHLQAAVAFVEQGHVRVGPDVVTDPAFLVTRSMEDFVTWVDSSKIKRHVLEYNEERDDFDLEA
B4: Jup (protein, UniProt P14923 1-745)
chain: MEVMNLMEQPIKVTEWQQTYTYDSGIHSGANTCVPSVSSKGIMEEDEACGRQYTLKKTTTYTQGVPPSQGDLEYQMSTTARAKRVREAMCPGVSGEDSSLLLATQVEGQATNLQRLAEPSQLLKSAIVHLINYQDDAELATRALPELTKLLNDEDPVVVTKAAMIVNQLSKKEASRRALMGSPQLVAAVVRTMQNTSDLDTARCTTSILHNLSHHREGLLAIFKSGGIPALVRMLSSPVESVLFYAITTLHNLLLYQEGAKMAVRLADGLQKMVPLLNKNNPKFLAITTDCLQLLAYGNQESKLIILANGGPQALVQIMRNYSYEKLLWTTSRVLKVLSVCPSNKPAIVEAGGMQALGKHLTSNSPRLVQNCLWTLRNLSDVATKQEGLESVLKILVNQLSVDDVNVLTCATGTLSNLTCNNSKNKTLVTQNSGVEALIHAILRAGDKDDITEPAVCALRHLTSRHPEAEMAQNSVRLNYGIPAIVKLLNQPNQWPLVKATIGLIRNLALCPANHAPLQEAAVIPRLVQLLVKAHQDAQRHVAAGTQQPYTDGVRMEEIVEGCTGALHILARDPMNRMEIFRLNTIPLFVQLLYSSVENIQRVAAGVLCELAQDKEAADAIDAEGASAPLMELLHSRNEGTATYAAAVLFRISEDKNPDYRKRVSVELTNSLFKHDPAAWEAAQSMIPINEPYGDDMDATYRPMYSSDVPLDPLEMHMDMDGDYPIDTYSDGLRPPYPTADHMLA
B5: Paics (protein, UniProt P22234 1-425)
chain: MATAEVLNIGKKLYEGKTKEVYELLDSPGKVLLQSKDQITAGNAARKNHLEGKAAISNKITSCIFQLLQEAGIKTAFTRKCGETAFIAPQCEMIPIEWVCRRIATGSFLKRNPGVKEGYKFYPPKVELFFKDDANNDPQWSEEQLIAAKFCFAGLLIGQTEVDIMSHATQAIFEILEKSWLPQNCTLVDMKIEFGVDVTTKEIVLADVIDNDSWRLWPSGDRSQQKDKQSYRDLKEVTPEGLQMVKKNFEWVAERVELLLKSESQCRVVVLMGSTSDLGHCEKIKKACGNFGIPCELRVTSAHKGPDETLRIKAEYEGDGIPTVFVAVAGRSNGLGPVMSGNTAYPVISCPPLTPDWGVQDVWSSLRLPSGLGCSTVLSPEGSAQFAAQIFGLSNHLVWSKLRASILNTWISLKQADKKIRECNL
B6: Hsd17b11 (protein, UniProt Q8NBQ5 20-300)
chain: ESFVKLFIPKRRKSVTGEIVLITGAGHGIGRLTAYEFAKLKSKLVLWDINKHGLEETAAKCKGLGAKVHTFVVDCSNREDIYSSAKKVKAEIGDVSILVNNAGVVYTSDLFATQDPQIEKTFEVNVLAHFWTTKAFLPAMTKNNHGHIVTVASAAGHVSVPFLLAYCSSKFAAVGFHKTLTDELAALQITGVKTTCLCPNFVNTGFIKNPSTSLGPTLEPEEVVNRLMHGILTEQKMIFIPSSIAFLTTLERILPERFLAVLKRKISVKFDAVIGYKMKAQ
B7: Asns (protein, UniProt P08243 1-561)
chain: MCGIWALFGSDDCLSVQCLSAMKIAHRGPDAFRFENVNGYTNCCFGFHRLAVVDPLFGMQPIRVKKYPYLWLCYNGEIYNHKKMQQHFEFEYQTKVDGEIILHLYDKGGIEQTICMLDGVFAFVLLDTANKKVFLGRDTYGVRPLFKAMTEDGFLAVCSEAKGLVTLKHSATPFLKVEPFLPGHYEVLDLKPNGKVASVEMVKYHHCRDVPLHALYDNVEKLFPGFEIETVKNNLRILFNNAVKKRLMTDRRIGCLLSGGLDSSLVAATLLKQLKEAQVQYPLQTFAIGMEDSPDLLAARKVADHIGSEHYEVLFNSEEGIQALDEVIFSLETYDITTVRASVGMYLISKYIRKNTDSVVIFSGEGSDELTQGYIYFHKAPSPEKAEEESERLLRELYLFDVLRADRTTAAHGLELRVPFLDHRFSSYYLSLPPEMRIPKNGIEKHLLRETFEDSNLIPKEILWRPKEAFSDGITSVKNSWFKILQEYVEHQVDDAMMANAAQKFPFNTPKTKEGYYYRQVFERHYPGRADWLSHYWMPKWINATDPSARTLTHYKSAVKA
B8: Rfc1 (protein, UniProt P35251 1-1148)
chain: MDIRKFFGVIPSGKKLVSETVKKNEKTKSDEETLKAKKGIKEIKVNSSRKEDDFKQKQPSKKKRIIYDSDSESEETLQVKNAKKPPEKLPVSSKPGKISRQDPVTYISETDEEDDFMCKKAASKSKENGRSTNSHLGTSNMKKNEENTKTKNKPLSPIKLTPTSVLDYFGTGSVQRSNKKMVASKRKELSQNTDESGLNDEAIAKQLQLDEDAELERQLHEDEEFARTLAMLDEEPKTKKARKDTEAGETFSSVQANLSKAEKHKYPHKVKTAQVSDERKSYSPRKQSKYESSKESQQHSKSSADKIGEVSSPKASSKLAIMKRKEESSYKEIEPVASKRKENAIKLKGETKTPKKTKSSPAKKESVSPEDSEKKRTNYQAYRSYLNREGPKALGSKEIPKGAENCLEGLIFVITGVLESIERDEAKSLIERYGGKVTGNVSKKTNYLVMGRDSGQSKSDKAAALGTKIIDEDGLLNLIRTMPGKKSKYEIAVETEMKKESKLERTPQKNVQGKRKISPSKKESESKKSRPTSKRDSLAKTIKKETDVFWKSLDFKEQVAEETSGDSKARNLADDSSENKVENLLWVDKYKPTSLKTIIGQQGDQSCANKLLRWLRNWQKSSSEDKKHAAKFGKFSGKDDGSSFKAALLSGPPGVGKTTTASLVCQELGYSYVELNASDTRSKSSLKAIVAESLNNTSIKGFYSNGAASSVSTKHALIMDEVDGMAGNEDRGGIQELIGLIKHTKIPIICMCNDRNHPKIRSLVHYCFDLRFQRPRVEQIKGAMMSIAFKEGLKIPPPAMNEIILGANQDIRQVLHNLSMWCARSKALTYDQAKADSHRAKKDIKMGPFDVARKVFAAGEETAHMSLVDKSDLFFHDYSIAPLFVQENYIHVKPVAAGGDMKKHLMLLSRAADSICDGDLVDSQIRSKQNWSLLPAQAIYASVLPGELMRGYMTQFPTFPSWLGKHSSTGKHDRIVQDLALHMSLRTYSSKRTVNMDYLSLLRDALVQPLTSQGVDGVQDVVALMDTYYLMKEDFENIMEISSWGGKPSPFSKLDPKVKAAFTRAYNKEAHLTPYSLQAIKASRHSTSPSLDSEYNEELNEDDSQSDEKDQDAIETDAMIKKKTKSSKPSKPEKDKEPRKGKGKSSKK
B9: Arcn1 (protein, UniProt P48444 1-511)
chain: MVLLAAAVCTKAGKAIVSRQFVEMTRTRIEGLLAAFPKLMNTGKQHTFVETESVRYVYQPMEKLYMVLITTKNSNILEDLETLRLFSRVIPEYCRALEENEISEHCFDLIFAFDEIVALGYRENVNLAQIRTFTEMDSHEEKVFRAVRETQEREAKAEMRRKAKELQQARRDAERQGKKAPGFGGFGSSAVSGGSTAAMITETIIETDKPKVAPAPARPSGPSKALKLGAKGKEVDNFVDKLKSEGETIMSSSMGKRTSEATKMHAPPINMESVHMKIEEKITLTCGRDGGLQNMELHGMIMLRISDDKYGRIRLHVENEDKKGVQLQTHPNVDKKLFTAESLIGLKNPEKSFPVNSDVGVLKWRLQTTEESFIPLTINCWPSESGNGCDVNIEYELQEDNLELNDVVITIPLPSGVGAPVIGEIDGEYRHDSRRNTLEWCLPVIDAKNKSGSLEFSIAGQPNDFFPVQVSFVSKKNYCNIQVTKVTQVDGNSPVRFSTETTFLVDKYEIL
B10: Agk (protein, UniProt Q53H12 1-422)
chain: MTVFFKTLRNHWKKTTAGLCLLTWGGHWLYGKHCDNLLRRAACQEAQVFGNQLIPPNAQVKKATVFLNPAACKGKARTLFEKNAAPILHLSGMDVTIVKTDYEGQAKKLLELMENTDVIIVAGGDGTLQEVVTGVLRRTDEATFSKIPIGFIPLGETSSLSHTLFAESGNKVQHITDATLAIVKGETVPLDVLQIKGEKEQPVFAMTGLRWGSFRDAGVKVSKYWYLGPLKIKAAHFFSTLKEWPQTHQASISYTGPTERPPNEPEETPVQRPSLYRRILRRLASYWAQPQDALSQEVSPEVWKDVQLSTIELSITTRNNQLDPTSKEDFLNICIEPDTISKGDFITIGSRKVRNPKLHVEGTECLQASQCTLLIPEGAGGSFSIDSEEYEAMPVEVKLLPRKLQFFCDPRKREQMLTSPTQ

Molecular target: Biotin-FOXC1 (mouse) (UniProt Q61572)
Experiment: affinity purification with mass spectrometry; streptavidin-agarose precipitation of biotinylated FOXC1 from nuclear extract of stable HEK293T cells (293T-Biotin-FOXC1); IP350 buffer (350 mM NaCl, 20 mM Tris-HCl pH 7.5, 0.5% NP40, 1 mM EDTA, 10% glycerin); SDS-PAGE, LC-ESI-MS/MS; proteins of the 293T-Biotin control deducted

binding, binds:
B1
B2
B3
B4
B5
B6
B7
B8
B9
B10
